Measured values: article PMC8551525
These are yes or no findings as the source states them, for the method shown. Some results given as binding are weak or reduced against the parent protein; the word gives no strength.

Protein sequences, listed by entry. Tags and fused reporters are not part of them. Residues count along the entry.
UniProt P12277: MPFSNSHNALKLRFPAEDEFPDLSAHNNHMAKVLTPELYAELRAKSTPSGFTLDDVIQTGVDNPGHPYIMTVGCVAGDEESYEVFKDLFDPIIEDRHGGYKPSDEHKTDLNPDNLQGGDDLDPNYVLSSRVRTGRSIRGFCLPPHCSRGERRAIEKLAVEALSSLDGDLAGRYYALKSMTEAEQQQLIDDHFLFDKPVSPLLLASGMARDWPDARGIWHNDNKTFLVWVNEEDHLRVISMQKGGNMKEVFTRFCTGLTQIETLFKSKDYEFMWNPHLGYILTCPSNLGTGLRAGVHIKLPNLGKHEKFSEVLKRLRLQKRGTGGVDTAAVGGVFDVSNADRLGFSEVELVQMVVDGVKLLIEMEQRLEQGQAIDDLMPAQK
UniProt P31749, residues 2-446: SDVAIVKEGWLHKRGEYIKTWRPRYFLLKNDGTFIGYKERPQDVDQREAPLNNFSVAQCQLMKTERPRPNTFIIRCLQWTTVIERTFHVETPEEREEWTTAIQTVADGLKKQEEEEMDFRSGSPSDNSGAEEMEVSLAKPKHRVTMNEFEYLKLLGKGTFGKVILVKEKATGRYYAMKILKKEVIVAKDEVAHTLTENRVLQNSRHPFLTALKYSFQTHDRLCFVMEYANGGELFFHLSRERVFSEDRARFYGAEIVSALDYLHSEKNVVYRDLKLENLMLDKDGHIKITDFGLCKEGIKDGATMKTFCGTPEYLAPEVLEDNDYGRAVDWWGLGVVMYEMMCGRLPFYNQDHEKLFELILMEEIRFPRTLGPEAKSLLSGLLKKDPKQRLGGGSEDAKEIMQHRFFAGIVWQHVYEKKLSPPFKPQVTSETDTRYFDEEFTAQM

Target: His-tagged recombinant human CKB protein (human) (UniProt P12277)
Assay: co-IP; 2ug purified his-AKT1 and his-CKB incubated at 4°C for 2h; anti-CKB antibody or rabbit IgG isotype control overnight at 4°C; Protein A/G agarose; immunoblot for AKT; both purified

In the case of “His-tagged recombinant human AKT1 protein (from UniProt P31749 2-446)”, the binding was “binds”.
